This is one part of the list.
Tests used:
Assay in all cases: log2 fold change, soluble protein after heating vs DMSO (PISA); higher = thermal stabilisation; K562 cells, 10 uM, 30 min; active = over 0.2 and 3.5 SD of the protein, either way, in both replicates (recomputed)
[1] = compound: C1=CC=C(C=C1)[C@H](COC2=CC3=C(C=C2)NC(=O)N3)NC(=O)C4=CC=CN(C4=O)CC5=CC(=C(C=C5)F)F
How it was run: (§1)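 Quantification of soluble protein used TMTpro 16plex LC-MS/MS, with channel sums equalised. Samples were the supernatant after 21,000xg for 90 min of pooled aliquots from K562 cells (2×10^6 cells/mL) treated with 10 μM compound for 30 min, heated for 3 min over 48°C-58°C, and extracted in PBS with 0.5% NP-40 at 4°C. Values, from duplicates, describe thermal stability against control samples on a log2 fold-change scale.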

Chains of the proteins cited; added tags and fusions are not shown. Lines headed by an entry give the natural chain unless they say otherwise; changes in a name come on top.
UniProt Q9NVA1: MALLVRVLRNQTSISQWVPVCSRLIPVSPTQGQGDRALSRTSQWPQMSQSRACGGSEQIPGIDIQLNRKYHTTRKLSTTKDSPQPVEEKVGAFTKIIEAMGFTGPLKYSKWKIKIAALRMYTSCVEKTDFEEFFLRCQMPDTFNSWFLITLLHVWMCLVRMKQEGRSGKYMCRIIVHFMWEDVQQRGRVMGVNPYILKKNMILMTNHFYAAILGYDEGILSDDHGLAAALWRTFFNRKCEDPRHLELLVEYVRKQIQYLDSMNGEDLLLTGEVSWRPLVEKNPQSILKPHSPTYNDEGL
UniProt O00124: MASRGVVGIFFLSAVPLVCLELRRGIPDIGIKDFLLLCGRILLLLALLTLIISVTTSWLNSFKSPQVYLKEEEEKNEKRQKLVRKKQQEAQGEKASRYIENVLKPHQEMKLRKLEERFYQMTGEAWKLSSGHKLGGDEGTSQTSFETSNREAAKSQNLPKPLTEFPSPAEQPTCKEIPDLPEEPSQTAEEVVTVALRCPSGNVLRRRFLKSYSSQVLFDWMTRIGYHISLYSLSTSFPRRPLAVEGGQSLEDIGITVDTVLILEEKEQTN
UniProt Q8N806: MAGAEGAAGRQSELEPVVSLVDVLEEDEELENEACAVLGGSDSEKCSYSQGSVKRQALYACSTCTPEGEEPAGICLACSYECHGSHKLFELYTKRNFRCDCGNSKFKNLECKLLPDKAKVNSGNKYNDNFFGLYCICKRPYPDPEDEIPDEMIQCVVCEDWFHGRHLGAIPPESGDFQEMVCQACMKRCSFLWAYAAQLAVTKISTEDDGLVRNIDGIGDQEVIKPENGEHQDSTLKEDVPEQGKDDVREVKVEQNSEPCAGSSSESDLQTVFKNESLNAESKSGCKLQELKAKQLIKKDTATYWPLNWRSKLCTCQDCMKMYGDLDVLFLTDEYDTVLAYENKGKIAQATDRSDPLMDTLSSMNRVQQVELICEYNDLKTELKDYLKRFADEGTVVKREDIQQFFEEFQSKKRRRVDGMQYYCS
UniProt P26640: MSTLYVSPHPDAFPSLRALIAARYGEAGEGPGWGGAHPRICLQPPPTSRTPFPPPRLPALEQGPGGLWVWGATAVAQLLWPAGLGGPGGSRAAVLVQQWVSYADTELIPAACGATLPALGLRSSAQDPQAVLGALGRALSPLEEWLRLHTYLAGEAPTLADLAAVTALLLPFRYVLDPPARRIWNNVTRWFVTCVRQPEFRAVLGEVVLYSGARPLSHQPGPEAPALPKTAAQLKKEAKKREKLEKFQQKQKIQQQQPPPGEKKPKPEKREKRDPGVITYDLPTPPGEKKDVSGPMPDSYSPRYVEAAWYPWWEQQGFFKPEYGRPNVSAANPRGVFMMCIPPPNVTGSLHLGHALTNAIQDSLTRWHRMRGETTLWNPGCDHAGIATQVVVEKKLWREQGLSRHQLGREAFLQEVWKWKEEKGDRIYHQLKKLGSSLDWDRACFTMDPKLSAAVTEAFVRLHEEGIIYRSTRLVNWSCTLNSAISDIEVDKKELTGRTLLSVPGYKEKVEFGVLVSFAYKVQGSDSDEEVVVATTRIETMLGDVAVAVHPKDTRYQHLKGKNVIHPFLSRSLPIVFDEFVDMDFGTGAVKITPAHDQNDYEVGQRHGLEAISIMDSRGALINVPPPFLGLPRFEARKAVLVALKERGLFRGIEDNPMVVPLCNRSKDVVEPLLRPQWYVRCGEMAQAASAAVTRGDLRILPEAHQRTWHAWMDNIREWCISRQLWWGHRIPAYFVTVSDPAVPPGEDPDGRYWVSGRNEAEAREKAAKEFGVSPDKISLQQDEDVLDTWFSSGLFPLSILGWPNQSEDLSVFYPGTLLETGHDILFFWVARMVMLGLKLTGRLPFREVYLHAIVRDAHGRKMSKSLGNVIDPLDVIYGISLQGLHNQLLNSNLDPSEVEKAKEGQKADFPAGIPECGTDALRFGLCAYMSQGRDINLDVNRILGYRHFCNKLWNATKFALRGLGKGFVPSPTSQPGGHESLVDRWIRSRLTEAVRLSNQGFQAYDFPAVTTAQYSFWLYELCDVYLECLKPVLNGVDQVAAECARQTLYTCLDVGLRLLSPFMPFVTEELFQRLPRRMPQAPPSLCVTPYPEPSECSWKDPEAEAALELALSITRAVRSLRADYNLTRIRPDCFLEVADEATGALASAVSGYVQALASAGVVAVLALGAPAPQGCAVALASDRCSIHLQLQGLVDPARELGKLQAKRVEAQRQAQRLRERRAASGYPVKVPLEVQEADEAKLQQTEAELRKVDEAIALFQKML
UniProt Q93008, whole entry, looked up: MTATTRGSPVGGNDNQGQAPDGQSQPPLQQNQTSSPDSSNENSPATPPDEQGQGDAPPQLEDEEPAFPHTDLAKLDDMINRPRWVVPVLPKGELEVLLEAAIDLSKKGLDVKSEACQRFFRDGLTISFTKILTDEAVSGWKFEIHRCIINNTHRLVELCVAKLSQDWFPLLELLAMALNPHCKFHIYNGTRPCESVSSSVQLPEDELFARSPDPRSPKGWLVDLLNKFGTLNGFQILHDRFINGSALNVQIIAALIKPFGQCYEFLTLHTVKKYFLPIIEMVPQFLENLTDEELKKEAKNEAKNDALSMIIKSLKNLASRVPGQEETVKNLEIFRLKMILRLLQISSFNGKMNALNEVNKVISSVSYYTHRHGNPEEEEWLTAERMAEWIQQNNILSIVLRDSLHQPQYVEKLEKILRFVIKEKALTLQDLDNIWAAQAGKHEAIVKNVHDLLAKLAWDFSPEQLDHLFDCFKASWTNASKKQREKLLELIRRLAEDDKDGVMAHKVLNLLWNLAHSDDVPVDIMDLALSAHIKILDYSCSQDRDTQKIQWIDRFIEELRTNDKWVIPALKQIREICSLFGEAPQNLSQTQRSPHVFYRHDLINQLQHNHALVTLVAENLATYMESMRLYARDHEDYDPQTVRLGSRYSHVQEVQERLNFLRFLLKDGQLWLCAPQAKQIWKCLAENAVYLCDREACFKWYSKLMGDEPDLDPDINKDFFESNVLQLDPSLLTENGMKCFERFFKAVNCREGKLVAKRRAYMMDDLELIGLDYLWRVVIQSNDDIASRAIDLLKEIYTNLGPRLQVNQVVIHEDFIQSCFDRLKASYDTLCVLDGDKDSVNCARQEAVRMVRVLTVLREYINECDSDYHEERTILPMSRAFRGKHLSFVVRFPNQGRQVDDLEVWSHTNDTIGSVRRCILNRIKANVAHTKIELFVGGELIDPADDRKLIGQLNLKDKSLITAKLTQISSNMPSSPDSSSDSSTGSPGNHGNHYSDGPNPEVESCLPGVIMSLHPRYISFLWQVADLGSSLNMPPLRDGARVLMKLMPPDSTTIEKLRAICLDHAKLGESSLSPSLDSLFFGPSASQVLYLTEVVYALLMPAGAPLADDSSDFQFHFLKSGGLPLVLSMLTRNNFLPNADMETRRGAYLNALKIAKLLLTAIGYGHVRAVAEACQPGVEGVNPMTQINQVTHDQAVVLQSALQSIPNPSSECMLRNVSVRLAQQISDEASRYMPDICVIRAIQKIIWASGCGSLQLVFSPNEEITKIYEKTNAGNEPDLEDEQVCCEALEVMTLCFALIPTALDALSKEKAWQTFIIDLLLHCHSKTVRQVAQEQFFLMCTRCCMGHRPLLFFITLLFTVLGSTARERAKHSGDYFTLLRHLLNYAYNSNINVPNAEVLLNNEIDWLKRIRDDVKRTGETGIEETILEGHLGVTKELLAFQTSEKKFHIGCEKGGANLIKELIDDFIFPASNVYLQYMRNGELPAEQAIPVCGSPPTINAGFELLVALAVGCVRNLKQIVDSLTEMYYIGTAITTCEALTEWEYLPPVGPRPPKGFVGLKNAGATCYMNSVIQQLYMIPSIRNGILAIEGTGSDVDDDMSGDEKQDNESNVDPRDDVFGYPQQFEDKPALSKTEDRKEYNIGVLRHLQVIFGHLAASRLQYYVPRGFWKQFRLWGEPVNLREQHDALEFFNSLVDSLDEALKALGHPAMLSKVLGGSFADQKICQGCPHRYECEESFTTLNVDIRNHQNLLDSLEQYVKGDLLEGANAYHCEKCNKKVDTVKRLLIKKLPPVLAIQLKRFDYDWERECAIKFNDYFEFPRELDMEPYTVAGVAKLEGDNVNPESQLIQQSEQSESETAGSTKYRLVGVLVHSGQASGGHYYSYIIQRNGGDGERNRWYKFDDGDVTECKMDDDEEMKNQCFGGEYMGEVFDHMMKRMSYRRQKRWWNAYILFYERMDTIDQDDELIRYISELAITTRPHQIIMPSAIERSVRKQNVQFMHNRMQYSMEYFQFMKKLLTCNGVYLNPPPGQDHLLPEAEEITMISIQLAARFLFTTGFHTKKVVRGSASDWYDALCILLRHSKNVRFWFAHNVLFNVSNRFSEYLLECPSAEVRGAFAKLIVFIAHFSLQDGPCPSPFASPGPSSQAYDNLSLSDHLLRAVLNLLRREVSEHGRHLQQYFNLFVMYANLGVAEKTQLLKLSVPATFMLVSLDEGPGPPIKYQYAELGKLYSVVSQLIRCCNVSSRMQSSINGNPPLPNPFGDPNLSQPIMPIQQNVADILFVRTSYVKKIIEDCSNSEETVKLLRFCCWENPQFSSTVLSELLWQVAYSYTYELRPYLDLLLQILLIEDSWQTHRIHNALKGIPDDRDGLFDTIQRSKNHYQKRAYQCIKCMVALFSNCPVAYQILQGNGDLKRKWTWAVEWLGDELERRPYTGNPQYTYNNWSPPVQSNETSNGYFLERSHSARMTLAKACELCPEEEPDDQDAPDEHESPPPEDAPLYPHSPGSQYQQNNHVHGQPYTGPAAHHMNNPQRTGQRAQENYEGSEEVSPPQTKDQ
UniProt O60701: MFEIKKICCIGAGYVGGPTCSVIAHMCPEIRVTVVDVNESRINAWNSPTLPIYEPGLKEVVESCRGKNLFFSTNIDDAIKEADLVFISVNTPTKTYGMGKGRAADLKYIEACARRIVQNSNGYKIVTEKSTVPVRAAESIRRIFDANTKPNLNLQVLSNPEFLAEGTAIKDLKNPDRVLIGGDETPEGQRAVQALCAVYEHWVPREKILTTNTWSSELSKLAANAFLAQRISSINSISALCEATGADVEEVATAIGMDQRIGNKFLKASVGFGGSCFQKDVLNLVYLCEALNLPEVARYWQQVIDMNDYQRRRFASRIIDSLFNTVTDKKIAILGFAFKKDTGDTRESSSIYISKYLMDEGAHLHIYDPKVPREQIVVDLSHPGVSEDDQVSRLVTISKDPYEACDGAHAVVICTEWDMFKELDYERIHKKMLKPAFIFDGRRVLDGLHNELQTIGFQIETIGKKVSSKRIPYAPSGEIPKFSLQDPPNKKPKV
UniProt Q96LJ8: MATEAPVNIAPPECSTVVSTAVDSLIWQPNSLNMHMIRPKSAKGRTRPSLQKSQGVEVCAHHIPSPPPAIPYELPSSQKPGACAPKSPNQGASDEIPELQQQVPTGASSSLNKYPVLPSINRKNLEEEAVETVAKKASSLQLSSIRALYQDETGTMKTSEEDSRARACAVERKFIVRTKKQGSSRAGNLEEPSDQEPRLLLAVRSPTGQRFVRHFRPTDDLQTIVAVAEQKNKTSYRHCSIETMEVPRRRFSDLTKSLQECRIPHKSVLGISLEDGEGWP
UniProt O94888: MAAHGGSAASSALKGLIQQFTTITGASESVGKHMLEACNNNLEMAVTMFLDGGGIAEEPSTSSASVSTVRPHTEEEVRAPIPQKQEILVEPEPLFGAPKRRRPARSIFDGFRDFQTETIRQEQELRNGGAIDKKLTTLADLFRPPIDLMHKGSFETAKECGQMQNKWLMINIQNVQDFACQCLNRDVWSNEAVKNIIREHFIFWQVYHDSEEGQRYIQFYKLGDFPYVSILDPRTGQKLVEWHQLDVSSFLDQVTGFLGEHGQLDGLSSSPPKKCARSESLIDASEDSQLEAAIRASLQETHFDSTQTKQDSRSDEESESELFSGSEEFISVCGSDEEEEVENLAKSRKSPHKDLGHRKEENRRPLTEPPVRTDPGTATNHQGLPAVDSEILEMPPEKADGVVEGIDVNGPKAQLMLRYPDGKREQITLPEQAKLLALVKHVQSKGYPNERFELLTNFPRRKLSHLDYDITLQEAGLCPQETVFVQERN
UniProt O14949: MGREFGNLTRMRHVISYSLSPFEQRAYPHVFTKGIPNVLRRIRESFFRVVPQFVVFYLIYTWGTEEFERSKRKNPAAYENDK
UniProt Q9UBK9, whole entry, looked up: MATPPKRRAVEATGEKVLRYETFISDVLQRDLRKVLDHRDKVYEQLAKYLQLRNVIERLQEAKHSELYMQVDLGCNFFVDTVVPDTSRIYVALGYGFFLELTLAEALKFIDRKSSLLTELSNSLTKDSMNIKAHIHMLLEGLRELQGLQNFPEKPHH
UniProt A6NIH7: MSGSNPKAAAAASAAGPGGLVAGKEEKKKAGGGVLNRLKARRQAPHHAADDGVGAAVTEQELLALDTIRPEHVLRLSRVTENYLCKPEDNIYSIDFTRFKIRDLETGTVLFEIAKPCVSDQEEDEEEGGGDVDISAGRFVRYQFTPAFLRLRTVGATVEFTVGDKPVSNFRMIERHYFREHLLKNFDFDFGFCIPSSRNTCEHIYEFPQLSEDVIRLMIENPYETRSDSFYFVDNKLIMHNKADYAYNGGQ

[2] = compound: CC1=C(SC2=C1C(=N[C@H](C3=NN=C(N32)C)CC(=O)N)C4=CC=C(C=C4)Cl)C
How it was run: as §1

[3] = compound: CC1=C2C(=CC=C1)N=C(N(C2=O)C3=CC=CC=C3C)CN4C=NC5=C(N=CN=C54)N
How it was run: as §1

[4] = compound: Cc1sc2c(c1C)C(c1ccc(Cl)cc1)=N[C@@H](CC(=O)OC(C)(C)C)c1nnc(C)n1-2
How it was run: as §1

[5] = compound: c1ccc([C@@H]2C[C@H]2NC2CCNCC2)cc1
How it was run: as §1

Measured: log2 fold change

UQCC1 (UniProt Q9NVA1)
inactive: [1] 0.012 | [2] 0.009 | [3] -0.035 | [4] 0 | [5] 0.005

UBXN8 (UniProt O00124)
inactive: [1] 0.3 | [2] -0.074 | [3] 0.192 | [4] 0.099 | [5] -0.055

USP15 (UniProt Q9Y4E8)
inactive: [1] -0.038 | [2] 0.035 | [3] 0.059 | [4] 0.008 | [5] -0.016

USP39 (UniProt Q53GS9)
inactive: [1] 0.005 | [2] -0.045 | [3] -0.068 | [4] 0.049 | [5] -0.005

UBR7 (UniProt Q8N806)
inactive: [1] -0.02 | [2] 0.043 | [3] 0.038 | [4] 0.01 | [5] 0.002

UFL1 (UniProt O94874)
inactive: [1] -0.072 | [2] 0.012 | [3] 0.039 | [4] 0.001 | [5] -0.066

VARS (UniProt P26640)
inactive: [1] -0.001 | [2] 0.007 | [3] 0.06 | [4] 0.009 | [5] -0.021

VCP (UniProt P55072)
inactive: [1] 0.02 | [2] 0.008 | [3] -0.012 | [4] 0.014 | [5] 0.044

USP9X (UniProt Q93008)
inactive: [1] -0.049 | [2] 0.028 | [3] 0.057 | [4] 0.012 | [5] -0.007

UROS (UniProt P10746)
inactive: [1] -0.076 | [2] 0.077 | [3] 0.004 | [4] -0.023 | [5] -0.042

UGDH (UniProt O60701)
inactive: [1] 0.025 | [2] 0.052 | [3] 0.103 | [4] -0.04 | [5] -0.038

USP16 (UniProt Q9Y5T5)
inactive: [1] -0.164 | [2] -0.245 | [3] -0.193 | [4] 0.102 | [5] 0.019

USP7 (UniProt Q93009)
inactive: [1] -0.165 | [2] 0.026 | [3] 0.09 | [4] -0.01 | [5] -0.062

UBR4 isoform 2 (UniProt Q5T4S7)
inactive: [1] -0.006 | [2] -0.024 | [3] 0.012 | [4] 0.001 | [5] -0.032

UBXN10 (UniProt Q96LJ8)
inactive: [1] 0.011 | [2] 0.014 | [3] 0.024 | [4] 0.018 | [5] 0.063

UNC13D isoform 3 (UniProt Q70J99)
inactive: [1] 0.081 | [2] -0.077 | [3] 0.025 | [4] 0.086 | [5] -0.099

UBXN7 (UniProt O94888)
inactive: [1] -0.022 | [2] 0.012 | [3] 0.039 | [4] 0.001 | [5] -0.01

Copied from above (2 entries):
UBR4 isoform 2 (UniProt Q5T4S7)
inactive: [1] -0.006 | [2] -0.024 | [3] 0.012 | [4] 0.001 | [5] -0.032

UBXN10 (UniProt Q96LJ8)
inactive: [1] 0.011 | [2] 0.014 | [3] 0.024 | [4] 0.018 | [5] 0.063

The list goes on:

UQCRQ (UniProt O14949)
inactive: [1] 0.042 | [2] 0.05 | [3] -0.043 | [4] -0.003 | [5] -0.004

UXT isoform 2 (UniProt Q9UBK9)
inactive: [1] 0.046 | [2] 0.063 | [3] 0.065 | [4] -0.005 | [5] -0.077

UIMC1 (UniProt Q96RL1)
inactive: [1] 0.073 | [2] -0.085 | [3] -0.028 | [4] 0.045 | [5] 0.022

UNC119B (UniProt A6NIH7)
inactive: [1] -0.093 | [2] -0.013 | [3] 0.094 | [4] -0.016 | [5] -0.009

UNK (UniProt Q9C0B0)
inactive: [1] 0.045 | [2] 0.026 | [3] -0.023 | [4] 0.09 | [5] 0.032

UBR5 (UniProt O95071)
inactive: [1] 0.051 | [2] -0.027 | [3] -0.006 | [4] 0.081 | [5] 0.072

From the supplement of paper PMC10849652
